Laboratory results as given in paper PMC3146538.
No constants are given. Whether binding was seen depends on the method and setting. In cells and extracts the contact can be indirect. Some results given as binding are weak or reduced against the parent protein; the word gives no strength.

Amino acid sequences for entries named in this document (tags omitted). A change or cut given only in a name is not applied to a line headed by its entry. Chains listed by the source or under a name are the forms on record and can include a tag or linker. Residues count along the entry.
FLAG-TSPX[Tail-L] (Q9H2G4, residues 397-693): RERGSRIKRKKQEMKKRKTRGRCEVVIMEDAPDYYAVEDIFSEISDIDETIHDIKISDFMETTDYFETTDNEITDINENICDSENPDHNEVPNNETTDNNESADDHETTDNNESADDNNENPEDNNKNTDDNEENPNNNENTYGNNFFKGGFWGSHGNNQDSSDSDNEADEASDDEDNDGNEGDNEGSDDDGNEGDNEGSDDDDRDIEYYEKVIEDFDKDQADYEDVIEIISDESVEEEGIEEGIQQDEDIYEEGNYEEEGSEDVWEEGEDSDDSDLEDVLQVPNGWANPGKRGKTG
FLAG-tagged TSPX[Δ26–108] (Q9H2G4, form named): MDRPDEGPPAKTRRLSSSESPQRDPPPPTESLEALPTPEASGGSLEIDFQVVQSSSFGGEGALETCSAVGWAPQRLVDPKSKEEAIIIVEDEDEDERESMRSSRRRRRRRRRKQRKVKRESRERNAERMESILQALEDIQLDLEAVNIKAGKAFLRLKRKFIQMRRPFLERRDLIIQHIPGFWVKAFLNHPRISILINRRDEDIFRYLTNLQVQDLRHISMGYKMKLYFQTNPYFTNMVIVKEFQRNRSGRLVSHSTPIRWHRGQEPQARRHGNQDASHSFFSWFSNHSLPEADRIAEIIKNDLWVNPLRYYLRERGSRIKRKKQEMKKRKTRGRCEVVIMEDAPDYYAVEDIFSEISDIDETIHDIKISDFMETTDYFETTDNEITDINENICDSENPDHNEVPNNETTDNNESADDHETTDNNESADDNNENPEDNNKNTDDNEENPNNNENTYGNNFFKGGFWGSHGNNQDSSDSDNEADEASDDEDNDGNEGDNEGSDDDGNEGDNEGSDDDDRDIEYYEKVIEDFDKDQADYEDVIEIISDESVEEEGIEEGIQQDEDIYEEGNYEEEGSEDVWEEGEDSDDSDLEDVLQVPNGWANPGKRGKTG
UniProt P03165: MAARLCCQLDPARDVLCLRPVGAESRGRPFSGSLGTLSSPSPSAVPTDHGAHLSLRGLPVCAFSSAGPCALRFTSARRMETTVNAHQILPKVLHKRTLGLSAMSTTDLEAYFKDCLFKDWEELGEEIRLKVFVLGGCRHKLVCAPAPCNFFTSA

Columns and labels:
[1] = target: FLAG-TSPX[Tail-L] (human) (UniProt Q9H2G4); experiment: co-IP
[2] = target: FLAG-tagged TSPX[Δ26–108] (human) (UniProt Q9H2G4); experiment: co-IP

Substance: Hemagglutinin (HA) epitope-tagged HBx (from UniProt P03165 1-154)
- binding [1]: binds
- binding [2]: binds
